Experimental data from patent US12048691B2 (SPERO THERAPEUTICS, INC., priority 2020, dated 2024).
Structures can show the parent of a compound that is named as a salt.

Assay: clinical
Settings: human, in vivo, po

Q: Which Tmax does the source give for C[C@@H](O)[C@H]1C(=O)N2C(C(=O)OCOC(=O)C(C)(C)C)=C(SC3CN(C4=NCCS4)C3)[C@H](C)[C@H]12 [Tebipenem pivoxil HBr, tebipenem pivoxil hydrobromide] here?
A: 1 h
